In PubChem BioAssay AID720641 (ICCB-Longwood Screening Facility, Harvard Medical School, 2013) one finds relative growth data, which are given here for one molecule.

The list shows a part of the results.

A short description of the assay: S. aureus growth inhibition at 42 and 30 °C, primary screen, LtaS inhibitor project, RN4220, two temperatures (AID 720641). As to conditions: OD600, 20 h, 42 °C, measured here: growth at 30 °C, stronger effect = lower value.
`CN(CCCl)CCCl`: the relative growth was 86.4%.
